Reference: patent publication US20250002535A1, “PEPTIDE HYDROGEL COMPRISING HYDROPHILIC AZIDE-CONTAINING AMINO ACID AND ITS USE” (The United States of America, as represented by the …, priority 2023, published 2025)
Not every detail of the peptide structures is certain; ends, links or a residue may be inferred. For part of these data: At least one read-out could not be matched to a standard name with certainty. Numbered stars: 1 amine (or outer) side, 2 acyl side, 3 side chain; on linkers, the order of the positions; unused ones are H or OH. Square brackets hold non-standard residues; d marks the D form. Peptide text beside a SMILES is read from it. X1 = [N-]=[N+]=NCCNCC[C@H](N[*:1])C(=O)[*:2]

Columns and labels:
[1] = circular dichroism (CD) of peptide folding; format: physicochemical
[2] = oscillatory rheology of peptide hydrogel; format: physicochemical; settings: physiological buffer

CC(C)[C@H](N)C(=O)N[C@@H](CCNCCN=[N+]=[N-])C(=O)N[C@H](C(=O)N[C@@H](CCNCCN=[N+]=[N-])C(=O)N[C@H](C(=O)N[C@@H](CCNCCN=[N+]=[N-])C(=O)N[C@H](C(=O)N[C@@H](CCNCCN=[N+]=[N-])C(=O)N[C@H](C(=O)N1CCC[C@@H]1C(=O)N1CCC[C@H]1C(=O)N[C@H](C(=O)N[C@@H](CCNCCN=[N+]=[N-])C(=O)N[C@H](C(=O)N[C@@H](CCC(=O)O)C(=O)N[C@H](C(=O)N[C@@H](CCNCCN=[N+]=[N-])C(=O)N[C@H](C(=O)N[C@@H](CCNCCN=[N+]=[N-])C(=O)N[C@H](C(N)=O)C(C)C)C(C)C)C(C)C)C(C)C)[C@@H](C)O)C(C)C)C(C)C)C(C)C)C(C)C [peptide 16, VZVZVZVZV^DPPTZVEVZVZV-NH2] (H-V[X1]V[X1]V[X1]V[X1]V[dP]PT[X1]VEV[X1]V[X1]V-NH2)
Tgel (β-sheet formation, temperature dependent CD) ([1]; 150 uM peptide in 1×HBS): 18 °C | temperature achieving maximum β-sheet structure ([1]; physiological buffer): 37 °C | secondary structure by CD in physiological buffer ([1]; physiological buffer, negative ellipticity peak around 216 nm): β-sheet structure | secondary structure by CD in water ([1]; water): random coil | gelation [2]: undergoes gelation | shear-thinning recovery [2]: shear-thinning recovery properties
